{"sequences": {"note": "Chains of the proteins cited; added tags and fusions are not shown. Lines headed by an entry give the natural chain unless they say otherwise; changes in a name come on top.", "UniProt Q8IYN2": "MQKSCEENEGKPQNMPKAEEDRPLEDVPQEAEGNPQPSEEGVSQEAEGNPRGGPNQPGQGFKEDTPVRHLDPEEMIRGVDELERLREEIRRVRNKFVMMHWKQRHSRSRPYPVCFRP", "UniProt Q8IVN3": "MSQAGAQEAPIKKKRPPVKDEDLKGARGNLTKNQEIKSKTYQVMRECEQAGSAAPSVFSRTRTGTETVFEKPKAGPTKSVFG", "UniProt Q86XL3": "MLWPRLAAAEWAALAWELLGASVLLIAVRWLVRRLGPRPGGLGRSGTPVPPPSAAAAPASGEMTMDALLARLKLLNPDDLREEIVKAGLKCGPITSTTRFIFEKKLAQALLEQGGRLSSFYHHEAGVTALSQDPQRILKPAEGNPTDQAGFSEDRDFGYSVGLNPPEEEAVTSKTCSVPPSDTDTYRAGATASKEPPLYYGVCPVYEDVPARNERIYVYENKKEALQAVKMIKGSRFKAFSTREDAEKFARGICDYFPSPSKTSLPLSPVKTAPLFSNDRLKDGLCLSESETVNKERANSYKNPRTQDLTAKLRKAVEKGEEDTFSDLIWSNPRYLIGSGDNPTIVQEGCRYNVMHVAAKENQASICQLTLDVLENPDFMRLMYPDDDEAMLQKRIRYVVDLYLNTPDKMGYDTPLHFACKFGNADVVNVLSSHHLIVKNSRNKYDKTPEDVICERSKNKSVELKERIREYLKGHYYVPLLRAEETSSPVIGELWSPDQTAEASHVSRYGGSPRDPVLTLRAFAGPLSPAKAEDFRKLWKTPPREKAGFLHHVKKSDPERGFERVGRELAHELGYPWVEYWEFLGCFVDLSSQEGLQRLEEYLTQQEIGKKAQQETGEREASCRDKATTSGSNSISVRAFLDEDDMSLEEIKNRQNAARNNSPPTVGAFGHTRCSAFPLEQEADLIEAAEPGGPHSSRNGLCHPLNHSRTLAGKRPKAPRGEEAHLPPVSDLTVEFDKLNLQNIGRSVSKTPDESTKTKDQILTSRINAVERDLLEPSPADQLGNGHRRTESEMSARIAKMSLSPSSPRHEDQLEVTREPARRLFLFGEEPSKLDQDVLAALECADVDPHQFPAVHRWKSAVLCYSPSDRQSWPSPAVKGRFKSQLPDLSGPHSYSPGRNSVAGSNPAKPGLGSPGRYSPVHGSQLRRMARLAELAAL", "UniProt Q8IY21": "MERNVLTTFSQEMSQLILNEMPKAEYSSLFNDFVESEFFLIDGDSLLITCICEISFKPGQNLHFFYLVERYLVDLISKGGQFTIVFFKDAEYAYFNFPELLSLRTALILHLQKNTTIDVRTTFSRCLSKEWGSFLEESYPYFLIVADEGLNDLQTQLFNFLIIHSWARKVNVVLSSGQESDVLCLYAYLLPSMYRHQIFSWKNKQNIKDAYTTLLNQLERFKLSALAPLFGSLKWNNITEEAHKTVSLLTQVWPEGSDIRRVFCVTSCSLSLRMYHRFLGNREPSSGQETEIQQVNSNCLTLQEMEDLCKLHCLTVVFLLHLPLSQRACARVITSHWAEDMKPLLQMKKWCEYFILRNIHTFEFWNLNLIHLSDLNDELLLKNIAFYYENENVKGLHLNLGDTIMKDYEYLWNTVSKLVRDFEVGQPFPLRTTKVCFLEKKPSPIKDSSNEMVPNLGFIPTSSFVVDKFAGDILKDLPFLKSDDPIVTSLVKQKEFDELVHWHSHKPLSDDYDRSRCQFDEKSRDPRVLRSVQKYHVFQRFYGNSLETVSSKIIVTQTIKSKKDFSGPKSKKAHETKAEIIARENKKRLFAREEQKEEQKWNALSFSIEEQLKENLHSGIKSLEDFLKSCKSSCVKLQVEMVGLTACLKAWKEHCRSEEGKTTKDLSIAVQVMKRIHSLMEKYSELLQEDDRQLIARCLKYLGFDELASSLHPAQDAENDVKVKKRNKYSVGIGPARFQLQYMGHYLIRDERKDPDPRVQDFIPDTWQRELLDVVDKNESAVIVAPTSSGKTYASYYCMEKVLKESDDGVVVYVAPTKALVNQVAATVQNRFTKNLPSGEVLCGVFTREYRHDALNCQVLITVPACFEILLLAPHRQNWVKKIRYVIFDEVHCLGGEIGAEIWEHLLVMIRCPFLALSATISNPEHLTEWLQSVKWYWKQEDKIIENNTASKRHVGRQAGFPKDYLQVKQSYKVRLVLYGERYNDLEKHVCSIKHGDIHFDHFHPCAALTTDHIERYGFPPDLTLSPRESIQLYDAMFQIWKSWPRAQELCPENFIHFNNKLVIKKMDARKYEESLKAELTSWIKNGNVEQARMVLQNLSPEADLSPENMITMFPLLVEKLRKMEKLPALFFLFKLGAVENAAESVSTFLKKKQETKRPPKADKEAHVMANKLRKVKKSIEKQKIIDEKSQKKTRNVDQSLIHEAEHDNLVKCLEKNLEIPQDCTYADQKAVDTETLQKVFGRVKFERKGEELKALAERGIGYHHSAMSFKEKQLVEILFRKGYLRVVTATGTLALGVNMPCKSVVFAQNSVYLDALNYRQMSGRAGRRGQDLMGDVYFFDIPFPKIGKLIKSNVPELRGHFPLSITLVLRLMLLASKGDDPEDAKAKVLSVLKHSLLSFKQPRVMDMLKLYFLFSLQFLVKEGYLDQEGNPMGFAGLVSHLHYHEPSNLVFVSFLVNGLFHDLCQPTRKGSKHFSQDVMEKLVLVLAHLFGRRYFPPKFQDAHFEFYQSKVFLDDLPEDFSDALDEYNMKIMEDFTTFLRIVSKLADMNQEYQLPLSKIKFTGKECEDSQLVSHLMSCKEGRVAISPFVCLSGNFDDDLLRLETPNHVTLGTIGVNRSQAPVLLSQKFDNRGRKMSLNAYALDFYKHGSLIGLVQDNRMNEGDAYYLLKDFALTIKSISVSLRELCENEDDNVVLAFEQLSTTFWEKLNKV", "UniProt Q86WG5": "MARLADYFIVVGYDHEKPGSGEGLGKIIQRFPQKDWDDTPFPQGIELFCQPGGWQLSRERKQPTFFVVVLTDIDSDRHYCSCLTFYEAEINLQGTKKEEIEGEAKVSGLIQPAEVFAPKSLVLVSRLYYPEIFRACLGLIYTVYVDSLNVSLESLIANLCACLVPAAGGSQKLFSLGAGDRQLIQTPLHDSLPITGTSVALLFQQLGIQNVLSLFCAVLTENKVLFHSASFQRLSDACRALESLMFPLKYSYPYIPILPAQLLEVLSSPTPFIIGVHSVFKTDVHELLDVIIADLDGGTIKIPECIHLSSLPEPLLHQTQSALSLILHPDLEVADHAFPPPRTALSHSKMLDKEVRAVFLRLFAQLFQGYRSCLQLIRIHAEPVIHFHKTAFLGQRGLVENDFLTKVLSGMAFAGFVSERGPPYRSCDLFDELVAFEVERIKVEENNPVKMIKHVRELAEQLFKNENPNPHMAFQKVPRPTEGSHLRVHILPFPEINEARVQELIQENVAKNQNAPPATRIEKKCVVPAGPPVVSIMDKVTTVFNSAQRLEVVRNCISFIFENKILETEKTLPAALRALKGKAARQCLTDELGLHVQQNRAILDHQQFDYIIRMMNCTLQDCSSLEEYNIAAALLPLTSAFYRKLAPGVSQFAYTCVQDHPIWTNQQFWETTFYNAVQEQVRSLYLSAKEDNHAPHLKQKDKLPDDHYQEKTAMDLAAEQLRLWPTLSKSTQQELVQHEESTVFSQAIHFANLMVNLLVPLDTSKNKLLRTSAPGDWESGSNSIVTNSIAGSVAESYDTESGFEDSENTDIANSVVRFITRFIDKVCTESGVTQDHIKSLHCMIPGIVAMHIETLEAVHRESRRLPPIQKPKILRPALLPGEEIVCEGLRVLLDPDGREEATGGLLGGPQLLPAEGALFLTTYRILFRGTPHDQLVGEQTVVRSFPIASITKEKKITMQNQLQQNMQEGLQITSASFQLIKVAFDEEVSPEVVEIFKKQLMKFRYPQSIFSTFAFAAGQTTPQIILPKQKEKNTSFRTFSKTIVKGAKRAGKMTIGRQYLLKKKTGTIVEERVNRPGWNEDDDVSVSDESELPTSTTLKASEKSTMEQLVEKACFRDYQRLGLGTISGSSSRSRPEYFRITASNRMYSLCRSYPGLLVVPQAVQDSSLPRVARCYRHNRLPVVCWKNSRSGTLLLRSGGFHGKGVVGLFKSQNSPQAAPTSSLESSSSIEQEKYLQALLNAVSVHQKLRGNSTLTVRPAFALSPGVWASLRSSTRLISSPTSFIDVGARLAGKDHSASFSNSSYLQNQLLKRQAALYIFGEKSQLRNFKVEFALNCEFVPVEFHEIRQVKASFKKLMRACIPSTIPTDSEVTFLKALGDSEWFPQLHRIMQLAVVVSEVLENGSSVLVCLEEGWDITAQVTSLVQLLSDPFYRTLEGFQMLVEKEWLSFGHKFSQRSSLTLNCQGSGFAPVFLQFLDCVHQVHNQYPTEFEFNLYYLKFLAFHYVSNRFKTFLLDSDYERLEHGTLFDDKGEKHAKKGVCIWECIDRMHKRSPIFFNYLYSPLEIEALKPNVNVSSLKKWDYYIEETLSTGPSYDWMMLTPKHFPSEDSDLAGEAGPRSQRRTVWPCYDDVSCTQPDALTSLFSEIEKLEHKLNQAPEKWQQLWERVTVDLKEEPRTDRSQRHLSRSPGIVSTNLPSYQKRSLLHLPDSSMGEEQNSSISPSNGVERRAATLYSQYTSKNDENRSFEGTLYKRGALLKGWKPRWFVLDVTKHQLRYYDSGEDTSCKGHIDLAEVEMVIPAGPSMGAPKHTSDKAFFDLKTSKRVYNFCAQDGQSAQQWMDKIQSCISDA", "UniProt Q8IVF7, whole entry": "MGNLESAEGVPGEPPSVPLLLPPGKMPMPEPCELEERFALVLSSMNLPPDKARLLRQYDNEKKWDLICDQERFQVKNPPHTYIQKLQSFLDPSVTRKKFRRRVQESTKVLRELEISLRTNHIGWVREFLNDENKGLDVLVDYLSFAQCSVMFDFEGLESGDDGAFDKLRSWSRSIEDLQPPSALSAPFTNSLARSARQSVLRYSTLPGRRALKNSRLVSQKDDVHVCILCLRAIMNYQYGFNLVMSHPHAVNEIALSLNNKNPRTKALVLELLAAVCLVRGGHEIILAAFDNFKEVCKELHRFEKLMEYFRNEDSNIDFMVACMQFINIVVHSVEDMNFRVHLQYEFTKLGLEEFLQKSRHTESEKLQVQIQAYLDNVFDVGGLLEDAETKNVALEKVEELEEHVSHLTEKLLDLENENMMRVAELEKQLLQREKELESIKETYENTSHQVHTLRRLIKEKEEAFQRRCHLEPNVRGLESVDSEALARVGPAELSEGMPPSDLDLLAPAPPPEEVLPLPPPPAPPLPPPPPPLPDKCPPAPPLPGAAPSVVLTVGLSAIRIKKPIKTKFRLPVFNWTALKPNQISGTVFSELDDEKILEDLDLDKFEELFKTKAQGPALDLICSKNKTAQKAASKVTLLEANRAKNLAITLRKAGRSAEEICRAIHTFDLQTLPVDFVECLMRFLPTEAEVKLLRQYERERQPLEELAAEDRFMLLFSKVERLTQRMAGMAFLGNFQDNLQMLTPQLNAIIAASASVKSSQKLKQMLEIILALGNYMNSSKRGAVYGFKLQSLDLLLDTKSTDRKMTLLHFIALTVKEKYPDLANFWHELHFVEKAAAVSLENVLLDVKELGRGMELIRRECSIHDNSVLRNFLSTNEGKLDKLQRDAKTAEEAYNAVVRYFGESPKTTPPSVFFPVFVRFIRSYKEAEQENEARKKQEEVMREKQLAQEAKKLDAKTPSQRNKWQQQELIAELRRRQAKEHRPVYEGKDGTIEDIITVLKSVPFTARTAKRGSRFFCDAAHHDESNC", "UniProt Q8IZC7": "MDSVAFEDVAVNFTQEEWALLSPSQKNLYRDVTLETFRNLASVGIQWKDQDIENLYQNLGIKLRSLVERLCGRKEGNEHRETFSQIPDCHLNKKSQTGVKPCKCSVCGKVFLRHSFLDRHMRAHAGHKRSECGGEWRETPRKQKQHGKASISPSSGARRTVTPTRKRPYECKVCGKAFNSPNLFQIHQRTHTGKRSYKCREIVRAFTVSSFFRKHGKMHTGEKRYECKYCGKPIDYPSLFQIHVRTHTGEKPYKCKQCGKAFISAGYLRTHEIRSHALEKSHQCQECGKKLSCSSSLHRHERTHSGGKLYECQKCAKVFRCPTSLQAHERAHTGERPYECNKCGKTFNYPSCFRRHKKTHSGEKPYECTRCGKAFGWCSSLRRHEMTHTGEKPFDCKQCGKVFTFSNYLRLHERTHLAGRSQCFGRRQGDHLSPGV"}, "source": "the supplement of paper PMC12819154", "about": "“High-throughput peptide-centric local stability assay extends protein–ligand identification to membrane proteins, tissues and bacteria” (Nature Structural & Molecular Biology, 2025)", "note": "Some of the results follow. Most values lie at the level of the controls, where differences are scatter."}
{"compound": "Cc1nc(Nc2ncc(C(=O)Nc3c(C)cccc3Cl)s2)cc(N2CCN(CCO)CC2)n1 [dasatinib]", "test": "log2 fold change of tryptic peptide abundance, ligand vs vehicle (limited proteolysis) (log2 ratio); higher = more trypsin-susceptible (destabilized)", "conditions": "ligand concentration: 5 uM; sample: K562 cleared lysate"}
{"target": "MRPL41 (peptide sequence: GIGFLTSGWR, peptide start residue: 40) (UniProt Q8IXM3)", "log2 fold change": -0.097}
{"target": "TCEAL8 (peptide sequence: FVMMHWK, peptide start residue: 96) (UniProt Q8IYN2)", "log2 fold change": -0.154}
{"target": "UniProt Q8IVN3 (peptide sequence: AGPTKSVFG, peptide start residue: 74)", "log2 fold change": 0.0776}
{"target": "ANKLE2 (peptide sequence: DLLEPSPADQLGNGHR, peptide start residue: 773) (UniProt Q86XL3)", "log2 fold change": 0.303}
{"target": "DDX60 (peptide sequence: KYEESLK, peptide start residue: 1071) (UniProt Q8IY21)", "log2 fold change": -0.0132}
{"target": "SBF2 (peptide sequence: AATLYSQYTSK, peptide start residue: 1729) (UniProt Q86WG5)", "log2 fold change": -0.165}
{"target": "FMNL3 (peptide sequence: GLESVDSEALAR, peptide start residue: 477) (UniProt Q8IVF7)", "log2 fold change": -0.222}
{"target": "THNSL1 (peptide sequence: IVGQNSGTSMK, peptide start residue: 173) (UniProt Q8IYQ7)", "log2 fold change": 0.164}
{"target": "UniProt Q8IUE6 (peptide sequence: TESHKPGK, peptide start residue: 121)", "log2 fold change": -0.0944}
{"target": "RHOT2 (peptide sequence: SCFGHPLAPQALEDVK, peptide start residue: 215) (UniProt Q8IXI1)", "log2 fold change": 0.19}
{"target": "ZNF101 (peptide sequence: RQGDHLSPGV, peptide start residue: 427) (UniProt Q8IZC7)", "log2 fold change": 0.266}
